No constants are given. Whether binding was seen depends on the method and setting. Binding calls can cover weak binding; strength is not graded here.
Molecular target: BSA (negative) (bovine)
Experiment: Open SPR; BSA immobilized as negative control, Tan 6 injected neat (2.2 µM), 1:10 (0.22 µM) and HBS buffer only

B1: MuDLL1.DSL-EGF12.Tan 6 (NL 99) (ligand)
chain: MAAHHHHHHGGENLYFQGFVCDEHYYGEGCSVFCRPRDDAFGHFTCGDRGEKMCDPGWKGQYCTDPICLPGCDDQHGYCDKPGECKCRVGWQGRYCDECIRYPGCLHGTCQQPWQCNCQEGWGGLFCNQGSSGSSGFVCDEHYYGEGCSVFCRPRDDAFGHFTCGDRGEKMCDPGWKGQYCTDPICLPGCDDQHGYCDKPGECKCRVGWQGRYCDECIRYPGCLHGTCQQPWQCNCQEGWGGLFCNQGSSGSSGFVCDEHYYGEGCSVFCRPRDDAFGHFTCGDRGEKMCDPGWKGQYCTDPICLPGCDDQHGYCDKPGECKCRVGWQGRYCDECIRYPGCLHGTCQQPWQCNCQEGWGGLFCNQGSSGSSGFVCDEHYYGEGCSVFCRPRDDAFGHFTCGDRGEKMCDPGWKGQYCTDPICLPGCDDQHGYCDKPGECKCRVGWQGRYCDECIRYPGCLHGTCQQPWQCNCQEGWGGLFCNQGSSGSSGFVCDEHYYGEGCSVFCRPRDDAFGHFTCGDRGEKMCDPGWKGQYCTDPICLPGCDDQHGYCDKPGECKCRVGWQGRYCDECIRYPGCLHGTCQQPWQCNCQEGWGGLFCNQGSSGSSGFVCDEHYYGEGCSVFCRPRDDAFGHFTCGDRGEKMCDPGWKGQYCTDPICLPGCDDQHGYCDKPGECKCRVGWQGRYCDECIRYPGCLHGTCQQPWQCNCQEGWGGLFCNQ
- binding: binds
